Results: patent US10159726B2, “Peptides, combination of peptides and scaffolds for use in immunotherapeutic treatment of various cancers” (Immatics Biotechnologies GmbH, priority 2015, dated 2018)
For some assays here: Expression values are those of the mRNA of the gene that encodes the peptide; a gene is named only where it was looked up.

How the values were obtained:
[1] = tested on: HLA-A*24 molecules of primary tumors; assay: Identification and relative LC-MS quantitation of HLA-A*24 tumor-associated peptides presented on tissue samples (XPRESIDENT presentation profiles); set-up: species or system human; settings: Table 9A: selected HLA-A*24-binding tumor-associated peptides; cancer entities on which the peptide was found presented
[2] = tested on: source genes of selected peptides; assay: Target coverage of source genes in tumor entities based on TCGA Research Network data; set-up: species or system human; settings: over-expressed = more than 2-fold above the highest 75% percentile of normal organs; for Target coverage, over-expression category of source gene, KICH (N = 66): Kidney chromophobe; for Target coverage, over-expression category of source gene, DLBC (N = 48): Lymphoid neoplasm diffuse large B-cell lymphoma; for Target coverage, over-expression category of source gene, BLCA (N = 408): Bladder urothelial carcinoma; for Target coverage, over-expression category of source gene, CESC (N = 307): Cervical squamous cell carcinoma and endocervical adenocarcinoma; for Target coverage, over-expression category of source gene, CHOL (N = 36): Cholangiocarcinoma; for Target coverage, over-expression category of source gene, HNSC (N = 521): Head and neck squamous cell carcinoma; for Target coverage, over-expression category of source gene, LGG (N = 534): Lower grade glioma; for Target coverage, over-expression category of source gene, MESO (N = 87): Mesothelioma; for Target coverage, over-expression category of source gene, ACC (N = 79): Adrenocortical carcinoma

Substance | ENTITIES [1] | Target coverage, over-expression category of source gene, KICH (N = 66) [2] | Target coverage, over-expression category of source gene, DLBC (N = 48) [2] | Target coverage, over-expression category of source gene, BLCA (N = 408) [2] | Target coverage, over-expression category of source gene, CESC (N = 307) [2] | Target coverage, over-expression category of source gene, CHOL (N = 36) [2] | Target coverage, over-expression category of source gene, HNSC (N = 521) [2] | Target coverage, over-expression category of source gene, LGG (N = 534) [2] | Target coverage, over-expression category of source gene, MESO (N = 87) [2] | Target coverage, over-expression category of source gene, ACC (N = 79) [2] | Target coverage, over-expression category of source gene, PCPG (N = 184) ([2]; Pheochromocytoma and paraganglioma)
129: peptide found in MOB1A (gene looked up) (KYIDYLMTW; listed as Homo sapiens) [compound 129] | NSCLC, GC, GB, PCA, HCC | B (>=20% of tumors above the cutoff, but <50%) | B (>=20% of tumors above the cutoff, but <50%) |  |  |  |  |  |  |  | 
394: peptide found in FANCI (gene looked up) (FYQPKIQQF; listed as Homo sapiens) [compound 394] | GB, PCA, HCC, NSCLC, GC |  | A (>=50% of tumors above the cutoff) | B (>=20% of tumors above the cutoff, but <50%) | A (>=50% of tumors above the cutoff) | C (>=5% of tumors above the cutoff, but <20%) | B (>=20% of tumors above the cutoff, but <50%) | C (>=5% of tumors above the cutoff, but <20%) | C (>=5% of tumors above the cutoff, but <20%) |  | 
403: peptide found in MMP12 (gene looked up) (TYKYVDINTF; listed as Homo sapiens) [compound 403] | NSCLC, GC |  | B (>=20% of tumors above the cutoff, but <50%) | C (>=5% of tumors above the cutoff, but <20%) | B (>=20% of tumors above the cutoff, but <50%) |  | B (>=20% of tumors above the cutoff, but <50%) |  |  |  | 
398: peptide found in KIF2C (gene looked up) (IYNGKLFDLL; listed as Homo sapiens) [compound 398] | CRC, GC, RCC, GB, PCA, HCC, NSCLC |  | A (>=50% of tumors above the cutoff) | A (>=50% of tumors above the cutoff) | A (>=50% of tumors above the cutoff) | C (>=5% of tumors above the cutoff, but <20%) | A (>=50% of tumors above the cutoff) | C (>=5% of tumors above the cutoff, but <20%) | C (>=5% of tumors above the cutoff, but <20%) |  | 
369: peptide found in CDK1 (gene looked up) (VYTHEVVTL; listed as Homo sapiens) [compound 369] | NSCLC |  | B (>=20% of tumors above the cutoff, but <50%) | B (>=20% of tumors above the cutoff, but <50%) | A (>=50% of tumors above the cutoff) |  | B (>=20% of tumors above the cutoff, but <50%) |  |  | C (>=5% of tumors above the cutoff, but <20%) | 
415: peptide found in PBK (gene looked up) (SYQKVIELF; listed as Homo sapiens) [compound 415] | PCA, HCC, NSCLC, CRC, GC, RCC, GB |  | C (>=5% of tumors above the cutoff, but <20%) | C (>=5% of tumors above the cutoff, but <20%) | B (>=20% of tumors above the cutoff, but <50%) |  | C (>=5% of tumors above the cutoff, but <20%) | C (>=5% of tumors above the cutoff, but <20%) |  | C (>=5% of tumors above the cutoff, but <20%) | 
130: peptide found in MOB1A (gene looked up) (VYAHIYHQHF; listed as Homo sapiens) [compound 130] | NSCLC, GC, PCA, HCC | B (>=20% of tumors above the cutoff, but <50%) | B (>=20% of tumors above the cutoff, but <50%) |  |  |  |  |  |  |  | 
404: peptide found in MMP12 (gene looked up) (RYLEKFYGL; listed as Homo sapiens) [compound 404] | NSCLC, GC, HCC |  | B (>=20% of tumors above the cutoff, but <50%) | C (>=5% of tumors above the cutoff, but <20%) | B (>=20% of tumors above the cutoff, but <50%) |  | B (>=20% of tumors above the cutoff, but <50%) |  |  |  | 
253: peptide found in NPFFR2 (gene looked up) (IYGFFNENF; listed as Homo sapiens) [compound 253] | HCC |  |  | C (>=5% of tumors above the cutoff, but <20%) |  |  |  |  | B (>=20% of tumors above the cutoff, but <50%) |  | B (>=20% of tumors above the cutoff, but <50%)
409: peptide found in RRM2 (gene looked up) (YFISHVLAF; listed as Homo sapiens) [compound 409] | GC, NSCLC |  | B (>=20% of tumors above the cutoff, but <50%) | B (>=20% of tumors above the cutoff, but <50%) | A (>=50% of tumors above the cutoff) |  | B (>=20% of tumors above the cutoff, but <50%) |  |  |  | 
400: peptide found in MMP1 (gene looked up) (KYLEKYYNL; listed as Homo sapiens) [compound 400] | NSCLC |  | B (>=20% of tumors above the cutoff, but <50%) | B (>=20% of tumors above the cutoff, but <50%) | B (>=20% of tumors above the cutoff, but <50%) |  | A (>=50% of tumors above the cutoff) |  | C (>=5% of tumors above the cutoff, but <20%) |  | 
401: peptide found in MMP1 (gene looked up) (VFMKDGFFYF; listed as Homo sapiens) [compound 401] | NSCLC, GC, PCA |  | B (>=20% of tumors above the cutoff, but <50%) | B (>=20% of tumors above the cutoff, but <50%) | B (>=20% of tumors above the cutoff, but <50%) |  | A (>=50% of tumors above the cutoff) |  | C (>=5% of tumors above the cutoff, but <20%) |  | 
397: peptide found in KIF2C (gene looked up) (IYNGKLFDL; listed as Homo sapiens) [compound 397] | GB, NSCLC, GC |  | A (>=50% of tumors above the cutoff) | A (>=50% of tumors above the cutoff) | A (>=50% of tumors above the cutoff) | C (>=5% of tumors above the cutoff, but <20%) | A (>=50% of tumors above the cutoff) | C (>=5% of tumors above the cutoff, but <20%) | C (>=5% of tumors above the cutoff, but <20%) |  | 
188: peptide found in SLC28A3 (gene looked up) (GYKTFFNEF; listed as Homo sapiens) [compound 188] | NSCLC |  |  | C (>=5% of tumors above the cutoff, but <20%) | B (>=20% of tumors above the cutoff, but <50%) | B (>=20% of tumors above the cutoff, but <50%) | B (>=20% of tumors above the cutoff, but <50%) |  | B (>=20% of tumors above the cutoff, but <50%) |  | 
